{
  "source": "paper PMC12402098",
  "about": "“YTHDF3 recognizes DNA N6-methyladenine and recruits ALKBH1 for 6mA removal from genomic DNA” (The EMBO Journal, 2025)",
  "key": {"[1]": {"tested_on": "ALKBH1 + YTHDF3 wild type", "test": "pull-down", "details": "YTHDF3 increases ALKBH1 binding; N6-methyl-dA at A20 of strand 1; pull-down: streptavidin-agarose, 1 nmol DNA, 30 C 30 min; recombinant protein; label: 3' biotin strand 1"}, "YTHDF3 wild type [2]": {"molecular_target": "T1, YTHDF3 wild type (UniProt Q7Z739)", "T1 sequence (looked up, limits assumed)": "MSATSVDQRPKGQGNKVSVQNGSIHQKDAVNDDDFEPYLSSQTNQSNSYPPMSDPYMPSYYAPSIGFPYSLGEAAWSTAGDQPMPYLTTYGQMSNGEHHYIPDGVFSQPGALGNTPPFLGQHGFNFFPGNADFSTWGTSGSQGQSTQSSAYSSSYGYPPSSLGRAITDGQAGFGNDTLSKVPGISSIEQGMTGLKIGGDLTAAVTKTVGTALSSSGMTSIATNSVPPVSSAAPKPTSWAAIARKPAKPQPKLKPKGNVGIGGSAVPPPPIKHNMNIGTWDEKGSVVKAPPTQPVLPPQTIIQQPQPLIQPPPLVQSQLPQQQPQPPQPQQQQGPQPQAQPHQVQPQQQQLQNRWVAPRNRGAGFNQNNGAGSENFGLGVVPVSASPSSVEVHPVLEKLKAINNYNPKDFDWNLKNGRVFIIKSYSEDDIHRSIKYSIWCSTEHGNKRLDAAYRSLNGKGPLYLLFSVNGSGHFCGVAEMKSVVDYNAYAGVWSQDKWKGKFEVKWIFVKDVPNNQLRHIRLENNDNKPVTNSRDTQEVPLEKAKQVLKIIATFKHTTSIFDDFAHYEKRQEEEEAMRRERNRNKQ", "test": "EMSA, pull-down", "details": "EMSA: LightShift kit, 30 C 20 min, then 2% glutaraldehyde on ice 15 min, 5% native gel, recombinant protein, protein details: His"}, "ALKBH1": {"molecular_target": "T2, ALKBH1 (UniProt Q13686)", "T2 sequence (looked up, limits assumed)": "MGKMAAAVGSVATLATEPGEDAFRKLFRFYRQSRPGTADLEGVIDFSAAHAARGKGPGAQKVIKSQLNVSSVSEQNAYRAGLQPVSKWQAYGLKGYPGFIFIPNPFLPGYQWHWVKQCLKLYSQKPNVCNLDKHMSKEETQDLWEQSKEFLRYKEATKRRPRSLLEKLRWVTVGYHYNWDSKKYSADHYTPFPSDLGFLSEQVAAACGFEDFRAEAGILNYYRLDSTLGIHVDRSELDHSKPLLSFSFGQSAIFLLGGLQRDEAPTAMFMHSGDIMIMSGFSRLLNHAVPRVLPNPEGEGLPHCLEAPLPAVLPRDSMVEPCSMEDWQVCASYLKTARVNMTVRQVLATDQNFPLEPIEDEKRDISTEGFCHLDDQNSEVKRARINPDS", "test": "SPR", "details": "SPR: 1x HBS-EP+, biotin-DNA on SA chip (~500 RU), 30 ul/min, recombinant protein, label: 3' biotin strand 1"}, "YTHDF3 wild type [3]": {"molecular_target": "T1, YTHDF3 wild type", "test": "SPR", "details": "SPR: 1x HBS-EP+, biotin-DNA on SA chip (~500 RU), 30 ul/min, recombinant protein, protein details: His, label: 3' biotin strand 1"}, "YTHDF3 wild type [4]": {"molecular_target": "T1, YTHDF3 wild type", "test": "EMSA", "details": "EMSA: LightShift kit, 30 C 20 min, then 2% glutaraldehyde on ice 15 min, 5% native gel, recombinant protein, protein details: His, label: 3' biotin strand 1"}, "[5]": {"molecular_target": "T3, YTHDF3 wild type, immunopurified (Homo sapiens) (UniProt Q7Z739)", "T3 sequence (looked up, limits assumed)": "T1 sequence (looked up, limits assumed)", "test": "EMSA", "details": "EMSA: LightShift kit, 30 C 20 min, then 2% glutaraldehyde on ice 15 min, 5% native gel, protein in a lysate after overexpression, protein details: Flag, label: 3' biotin strand 1"}, "[6]": {"molecular_target": "T4, YTHDF3 YTH domain construct (UniProt Q7Z739)", "T4 sequence (looked up, limits assumed)": "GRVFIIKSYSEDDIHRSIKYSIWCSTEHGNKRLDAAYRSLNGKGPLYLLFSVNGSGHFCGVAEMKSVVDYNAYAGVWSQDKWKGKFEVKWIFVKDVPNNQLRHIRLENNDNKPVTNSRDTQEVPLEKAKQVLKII", "test": "pull-down", "details": "N6-methyl-dA at A10 of strand 1; pull-down: streptavidin-agarose, 1 nmol DNA, 30 C 30 min; protein in a lysate after overexpression; protein details: Flag; label: 3' biotin strand 1"}, "[7]": {"molecular_target": "T5, cellular ALKBH1 (Homo sapiens) (UniProt Q13686)", "T5 sequence (looked up, limits assumed)": "T2 sequence (looked up, limits assumed)", "test": "pull-down", "details": "increased by YTHDF3, decreased in YTHDF3 KO; N6-methyl-dA at A10 of strand 1; pull-down: streptavidin-agarose, 1 nmol DNA, 30 C 30 min; protein in an extract; label: 3' biotin strand 1"}, "[8]": {"molecular_target": "T6, YTHDF3 MT6mA, immunopurified or cellular W438R,W492R (Homo sapiens) (UniProt Q7Z739)", "T6 sequence (looked up, limits assumed)": "T1 sequence (looked up, limits assumed) with W438R, W492R", "test": "EMSA, pull-down", "details": "N6-methyl-dA at A10 of strand 1; EMSA: LightShift kit, 30 C 20 min, then 2% glutaraldehyde on ice 15 min, 5% native gel; protein in a lysate after overexpression; protein details: Flag; label: 3' biotin strand 1"}, "[9]": {"tested_on": "ALKBH1 + YTHDF3 wild type", "test": "pull-down, EMSA", "details": "YTHDF3 increases ALKBH1 binding; N6-methyl-dA at A10 of strand 1; EMSA: LightShift kit, 30 C 20 min, then 2% glutaraldehyde on ice 15 min, 5% native gel; recombinant protein; label: 3' biotin strand 1"}, "YTHDF3 MT6mA W438R,W492R": {"molecular_target": "T7, YTHDF3 MT6mA W438R,W492R (UniProt Q7Z739)", "T7 sequence (looked up, limits assumed)": "T1 sequence (looked up, limits assumed) with W438R, W492R", "test": "pull-down or EMSA", "details": "N6-methyl-dA at A10 of strand 1; EMSA: LightShift kit, 30 C 20 min, then 2% glutaraldehyde on ice 15 min, 5% native gel; recombinant protein; protein details: His; label: 3' biotin strand 1"}, "[10]": {"details": "N6-methyl-dA at A10 of strand 1"}},
  "note": "Substitutions are numbered along the chain they refer to. For at least one entry, the source does not settle the construct or the ends of the probe. For some of these results: A weaker result is weaker than the reference pair of the same experiment. For some of these results: Where a protein sequence is shown, tags need not be part of it. For some of these results: At least one result comes from cells or an extract, where the contact may be indirect.",
  "data": [
    {"sequence": "AACTTCGTGCAGGCATGGGATCTTGTCTACT (double strand) [ds-6mA]", "values": [
      {"measurement": "binding result", "setting": "[1]", "result": "binds"},
      {"measurement": "binding result", "setting": "YTHDF3 wild type [2]; N6-methyl-dA at A20 of strand 1, label: 3' biotin strand 1", "result": "binds"}
    ]},
    {"sequence": "AACTTCGTGCAGGCATGGGATCTTGTCTACT (double strand) [ds-A]", "values": [
      {"measurement": "binding result", "setting": "YTHDF3 wild type [2]; label: 3' biotin strand 1", "result": "binds more weakly"}
    ]},
    {"sequence": "AACTTCGTGCAGGCATGGGATCTTGTCTACT / AGTAGACACATGCCTGCACGAAGTT [Bulge-A]", "values": [
      {"measurement": "binding result", "setting": "YTHDF3 wild type [2]; label: 3' biotin strand 1", "result": "binds more weakly"}
    ]},
    {"sequence": "AACTTCGTGCAGGCATGGGATCTTGTCTACT / AGTAGACAGTCGATCATGCCTGCACGAAGTT [Bubble-A]", "values": [
      {"measurement": "binding result", "setting": "YTHDF3 wild type [2]; label: 3' biotin strand 1", "result": "binds more weakly"}
    ]},
    {"sequence": "AACTTCGTGCAGGCATGGGATCTTGTCTACT [ss-A]", "values": [
      {"measurement": "binding result", "setting": "YTHDF3 wild type [2]; label: 3' biotin, single-stranded DNA", "result": "binds more weakly"}
    ]},
    {"sequence": "CTATGTTTCATGTACCGCCA (double strand) [6mA-ds-oligo]", "values": [
      {"measurement": "Kd", "setting": "ALKBH1; [10]", "result": 1240, "unit": "nM"},
      {"measurement": "Kd", "setting": "YTHDF3 wild type [3]; [10]", "result": 162, "unit": "nM"},
      {"measurement": "binding result", "setting": "YTHDF3 wild type [4]; [10]", "result": "binds"},
      {"measurement": "binding result", "setting": "[5]; [10]", "result": "binds"},
      {"measurement": "binding result", "setting": "[6]", "result": "binds"},
      {"measurement": "binding result", "setting": "[7]", "result": "binds"},
      {"measurement": "binding result", "setting": "[8]", "result": "binds more weakly"},
      {"measurement": "binding result", "setting": "[9]", "result": "binds"},
      {"measurement": "binding result", "setting": "YTHDF3 MT6mA W438R,W492R", "result": "binds more weakly"}
    ]},
    {"sequence": "CTATGTTTCATGTACCGCCA (double strand) [A-ds-oligo]", "values": [
      {"measurement": "Kd", "setting": "ALKBH1", "result": 2440, "unit": "nM"},
      {"measurement": "Kd", "setting": "YTHDF3 wild type [3]", "result": 512, "unit": "nM"},
      {"measurement": "binding result", "setting": "YTHDF3 wild type [4]", "result": "binds more weakly"},
      {"measurement": "binding result", "setting": "[5]", "result": "binds more weakly"}
    ]}
  ]
}
